From patent US20190137505A1 (THE ARIZONA BOARD OF REGENTS ON BEHALF OF THE UNIVERSITY OF …, priority 2015, published 2019)

System: HSA
[1] = T2D subjects taking metformin, mean (standard deviation), N 37

CN(C)C(=N)NC(=N)N.Cl [Metformin, 1,1-dimethylbiguanide hydrochloride]
change in MG modifications of HSA (T2D subjects taking metformin compared to non-metformin T2D subjects, p=0.0042): substantial and significant decreases | change in glucosone modifications of HSA (T2D subjects taking metformin compared to non-metformin T2D subjects, p=0.0062): substantial and significant decreases | Log HbA1c (T2D subjects taking metformin, mean (standard deviation) are ranked HbA1c, N 35): 78.46 (20.87)^1 | HSA Modifications Glucosone [1]: 10.90 (2.26) | HSA Modifications MG [1]: 11.04 (2.42) | HSA Modifications Oxidative [1]: 0.22 (1.88)
